Consider 5 molecules from publication PMC12351132.

Experiment [1] has as its target T1, transforming growth factor beta receptor I (TGFBR1) (human (endogenous in KYSE150 and TE1)) (UniProt P36897).
T1 sequence: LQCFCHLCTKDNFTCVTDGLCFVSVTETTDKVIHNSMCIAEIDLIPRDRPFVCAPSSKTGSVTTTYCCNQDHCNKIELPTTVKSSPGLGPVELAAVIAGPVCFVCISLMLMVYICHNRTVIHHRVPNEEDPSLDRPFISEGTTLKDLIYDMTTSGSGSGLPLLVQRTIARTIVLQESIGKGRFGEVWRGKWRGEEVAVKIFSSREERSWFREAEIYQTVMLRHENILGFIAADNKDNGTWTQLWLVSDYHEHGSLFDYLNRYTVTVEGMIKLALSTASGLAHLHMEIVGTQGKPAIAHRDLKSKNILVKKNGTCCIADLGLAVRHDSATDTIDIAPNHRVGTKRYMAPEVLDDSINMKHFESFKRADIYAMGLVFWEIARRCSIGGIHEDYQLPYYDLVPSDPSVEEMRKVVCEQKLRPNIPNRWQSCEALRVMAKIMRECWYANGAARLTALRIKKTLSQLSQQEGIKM
In words: co-IP; lysates of cells transfected with the APMAP overexpression plasmid (pcDNA3.1-APMAP) or control; IP with anti-TGFBR1 or anti-APMAP, immunoblot with anti-TAK1, anti-TGFBR1 or anti-APMAP.

The target of experiment [2] is T2, adipocyte plasma membrane-associated protein (APMAP) (human (endogenous in KYSE150 and TE1)) (UniProt Q9HDC9).
T2 sequence: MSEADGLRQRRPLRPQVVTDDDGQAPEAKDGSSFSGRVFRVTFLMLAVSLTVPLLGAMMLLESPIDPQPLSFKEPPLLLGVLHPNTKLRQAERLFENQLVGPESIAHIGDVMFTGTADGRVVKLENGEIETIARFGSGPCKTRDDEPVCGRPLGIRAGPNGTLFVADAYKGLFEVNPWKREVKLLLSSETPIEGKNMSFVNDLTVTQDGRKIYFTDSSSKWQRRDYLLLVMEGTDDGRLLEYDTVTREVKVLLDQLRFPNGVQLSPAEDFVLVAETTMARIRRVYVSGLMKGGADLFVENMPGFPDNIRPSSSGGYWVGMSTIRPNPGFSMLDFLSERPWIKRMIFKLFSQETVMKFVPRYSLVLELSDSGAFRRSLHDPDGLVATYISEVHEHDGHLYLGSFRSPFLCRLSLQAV
In words: co-IP; endogenous proteins in NP-40 lysates of KYSE150 and TE1 cells treated with DMSO or 100 nM Tg; lysate with the indicated antibody (anti-CRELD2, anti-TGFBR1 or anti-APMAP) 3 h at 4°C, protein A/G agarose beads overnight at 4°C, three washes with NP-40 buffer, immunoblot; normal rabbit IgG as negative control. (A western blot detects proteins with antibodies after separation by electrophoresis.)

The target in experiment [3] is T1, transforming growth factor beta receptor I (TGFBR1) (human (endogenous in KYSE150 and TE1)). The experiment is described as above.
For experiment [4], the target named is T3, cysteine-rich with EGF-like domains 2 (CRELD2) (human (endogenous in KYSE150 and TE1)) (UniProt Q6UXH1).
T3 sequence: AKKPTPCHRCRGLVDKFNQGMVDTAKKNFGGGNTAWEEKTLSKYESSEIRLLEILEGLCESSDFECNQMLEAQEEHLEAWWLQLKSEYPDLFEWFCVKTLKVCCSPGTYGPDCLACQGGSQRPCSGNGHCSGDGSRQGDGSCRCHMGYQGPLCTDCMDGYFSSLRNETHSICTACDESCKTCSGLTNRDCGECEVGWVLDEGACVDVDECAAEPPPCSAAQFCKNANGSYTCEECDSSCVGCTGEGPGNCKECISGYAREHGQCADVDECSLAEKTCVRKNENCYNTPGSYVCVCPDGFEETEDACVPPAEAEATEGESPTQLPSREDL
Described as above.

For experiment [5], the target named is T4, TAK1 (human (endogenous in KYSE150 and TE1)) (UniProt O43318).
T4 sequence: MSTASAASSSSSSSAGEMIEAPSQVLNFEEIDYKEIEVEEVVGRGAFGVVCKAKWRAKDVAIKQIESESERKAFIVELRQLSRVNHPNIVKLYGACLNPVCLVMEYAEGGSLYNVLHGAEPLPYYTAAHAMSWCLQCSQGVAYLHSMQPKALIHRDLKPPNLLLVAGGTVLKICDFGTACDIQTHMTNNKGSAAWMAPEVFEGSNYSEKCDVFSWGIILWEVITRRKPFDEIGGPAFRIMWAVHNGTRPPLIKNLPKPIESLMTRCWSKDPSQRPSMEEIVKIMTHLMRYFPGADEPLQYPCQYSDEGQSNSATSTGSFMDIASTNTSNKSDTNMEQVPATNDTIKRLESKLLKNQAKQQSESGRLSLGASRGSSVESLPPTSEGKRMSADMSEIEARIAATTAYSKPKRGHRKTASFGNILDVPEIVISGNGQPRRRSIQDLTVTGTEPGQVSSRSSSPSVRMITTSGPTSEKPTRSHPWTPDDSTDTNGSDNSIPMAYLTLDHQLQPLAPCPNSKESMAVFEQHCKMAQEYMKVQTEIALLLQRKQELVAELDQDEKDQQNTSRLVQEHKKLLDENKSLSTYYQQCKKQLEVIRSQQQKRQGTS
The experiment in a line: co-IP; lysates of cells transfected with the APMAP overexpression plasmid (pcDNA3.1-APMAP) or control; IP with anti-TGFBR1 or anti-APMAP, immunoblot with anti-TAK1, anti-TGFBR1 or anti-APMAP.

These are yes or no findings as the source states them, for the method shown. Binding seen in cells or lysates may run through a third protein. Some entries that bind do so weakly or less than the wild type.

B1: TAK1 (enzyme, UniProt O43318 1-606)
chain: MSTASAASSSSSSSAGEMIEAPSQVLNFEEIDYKEIEVEEVVGRGAFGVVCKAKWRAKDVAIKQIESESERKAFIVELRQLSRVNHPNIVKLYGACLNPVCLVMEYAEGGSLYNVLHGAEPLPYYTAAHAMSWCLQCSQGVAYLHSMQPKALIHRDLKPPNLLLVAGGTVLKICDFGTACDIQTHMTNNKGSAAWMAPEVFEGSNYSEKCDVFSWGIILWEVITRRKPFDEIGGPAFRIMWAVHNGTRPPLIKNLPKPIESLMTRCWSKDPSQRPSMEEIVKIMTHLMRYFPGADEPLQYPCQYSDEGQSNSATSTGSFMDIASTNTSNKSDTNMEQVPATNDTIKRLESKLLKNQAKQQSESGRLSLGASRGSSVESLPPTSEGKRMSADMSEIEARIAATTAYSKPKRGHRKTASFGNILDVPEIVISGNGQPRRRSIQDLTVTGTEPGQVSSRSSSPSVRMITTSGPTSEKPTRSHPWTPDDSTDTNGSDNSIPMAYLTLDHQLQPLAPCPNSKESMAVFEQHCKMAQEYMKVQTEIALLLQRKQELVAELDQDEKDQQNTSRLVQEHKKLLDENKSLSTYYQQCKKQLEVIRSQQQKRQGTS
In the case of B1, the binding entry in experiment [1], in experiment [2] and in experiment [3] was “binds” each time.

B2: adipocyte plasma membrane-associated protein (APMAP) (protein, UniProt Q9HDC9 1-416)
chain: MSEADGLRQRRPLRPQVVTDDDGQAPEAKDGSSFSGRVFRVTFLMLAVSLTVPLLGAMMLLESPIDPQPLSFKEPPLLLGVLHPNTKLRQAERLFENQLVGPESIAHIGDVMFTGTADGRVVKLENGEIETIARFGSGPCKTRDDEPVCGRPLGIRAGPNGTLFVADAYKGLFEVNPWKREVKLLLSSETPIEGKNMSFVNDLTVTQDGRKIYFTDSSSKWQRRDYLLLVMEGTDDGRLLEYDTVTREVKVLLDQLRFPNGVQLSPAEDFVLVAETTMARIRRVYVSGLMKGGADLFVENMPGFPDNIRPSSSGGYWVGMSTIRPNPGFSMLDFLSERPWIKRMIFKLFSQETVMKFVPRYSLVLELSDSGAFRRSLHDPDGLVATYISEVHEHDGHLYLGSFRSPFLCRLSLQAV
On to B2, for which the binding entry in experiment [4] is on record as “binds”.

B3: APMAP overexpressed from pcDNA3.1-APMAP (protein, UniProt Q9HDC9 1-416)
chain: MSEADGLRQRRPLRPQVVTDDDGQAPEAKDGSSFSGRVFRVTFLMLAVSLTVPLLGAMMLLESPIDPQPLSFKEPPLLLGVLHPNTKLRQAERLFENQLVGPESIAHIGDVMFTGTADGRVVKLENGEIETIARFGSGPCKTRDDEPVCGRPLGIRAGPNGTLFVADAYKGLFEVNPWKREVKLLLSSETPIEGKNMSFVNDLTVTQDGRKIYFTDSSSKWQRRDYLLLVMEGTDDGRLLEYDTVTREVKVLLDQLRFPNGVQLSPAEDFVLVAETTMARIRRVYVSGLMKGGADLFVENMPGFPDNIRPSSSGGYWVGMSTIRPNPGFSMLDFLSERPWIKRMIFKLFSQETVMKFVPRYSLVLELSDSGAFRRSLHDPDGLVATYISEVHEHDGHLYLGSFRSPFLCRLSLQAV
In the case of B3, the binding entry in experiment [5] is recorded as “binds”.

B4: TAK1-binding protein 1 (TAB1) (protein, UniProt Q15750 1-504)
chain: MAAQRRSLLQSEQQPSWTDDLPLCHLSGVGSASNRSYSADGKGTESHPPEDSWLKFRSENNCFLYGVFNGYDGNRVTNFVAQRLSAELLLGQLNAEHAEADVRRVLLQAFDVVERSFLESIDDALAEKASLQSQLPEGVPQHQLPPQYQKILERLKTLEREISGGAMAVVAVLLNNKLYVANVGTNRALLCKSTVDGLQVTQLNVDHTTENEDELFRLSQLGLDAGKIKQVGIICGQESTRRIGDYKVKYGYTDIDLLSAAKSKPIIAEPEIHGAQPLDGVTGFLVLMSEGLYKALEAAHGPGQANQEIAAMIDTEFAKQTSLDAVAQAVVDRVKRIHSDTFASGGERARFCPRHEDMTLLVRNFGYPLGEMSQPTPSPAPAAGGRVYPVSVPYSSAQSTSKTSVTLSLVMPSQGQMVNGAHSASTLDEATPTLTNQSPTLTLQSTNTHTQSSSSSSDGGLFRSRPAHSLPPGEDGRVEPYVDFAEFYRLWSVDHGEQSVVTAP
As to B4, in experiment [2], the binding result is reported as “binds”.

B5: TAK1-binding protein 2 (TAB2) (protein, UniProt Q9NYJ8 1-693)
chain: MAQGSHQIDFQVLHDLRQKFPEVPEVVVSRCMLQNNNNLDACCAVLSQESTRYLYGEGDLNFSDDSGISGLRNHMTSLNLDLQSQNIYHHGREGSRMNGSRTLTHSISDGQLQGGQSNSELFQQEPQTAPAQVPQGFNVFGMSSSSGASNSAPHLGFHLGSKGTSSLSQQTPRFNPIMVTLAPNIQTGRNTPTSLHIHGVPPPVLNSPQGNSIYIRPYITTPGGTTRQTQQHSGWVSQFNPMNPQQVYQPSQPGPWTTCPASNPLSHTSSQQPNQQGHQTSHVYMPISSPTTSQPPTIHSSGSSQSSAHSQYNIQNISTGPRKNQIEIKLEPPQRNNSSKLRSSGPRTSSTSSSVNSQTLNRNQPTVYIAASPPNTDELMSRSQPKVYISANAATGDEQVMRNQPTLFISTNSGASAASRNMSGQVSMGPAFIHHHPPKSRAIGNNSATSPRVVVTQPNTKYTFKITVSPNKPPAVSPGVVSPTFELTNLLNHPDHYVETENIQHLTDPTLAHVDRISETRKLSMGSDDAAYTQALLVHQKARMERLQRELEIQKKKLDKLKSEVNEMENNLTRRRLKRSNSISQIPSLEEMQQLRSCNRQLQIDIDCLTKEIDLFQARGPHFNPSAIHNFYDNIGFVGPVPPKPKDQRSIIKTPKTQDTEDDEGAQWNCTACTFLNHPALIRCEQCEMPRHF
On to B5, for which the binding entry in experiment [2] was “binds”.
